The values that follow are results of earlier work, collected in patent US9487492B2, “Dibenzothiazepine derivatives and their use in the treatment of CNS disorders” (NUMEDICUS LIMITED, priority 2011, dated 2016).

The conditions of this series: in humans; cited from earlier work.

As for `CN1c2ccccc2C(NCCCCCCC(=O)O)c2ccc(Cl)cc2S1(=O)=O` (stereo not shown) [Tianeptine], the terminal half life entry is given as “approximately 2.5 hours”.
